# The campaign covered roughly 580,000 compounds. About 6,100 (1.1%) were called active. This list was built around the results that the source calls inconclusive (neither active nor inactive); the mix of calls is not that of the screen. Calls come from the whole dose curve; as a rule, active = well fitted inhibition curve with a large enough effect; inconclusive = small, poorly fitted or top-dose-only effect, or another doubt; inactive = no such curve, though single readings can be large or run the other way. Potencies beside an inconclusive call are fits to weak or partial responses and may not hold up.
# Sequences of proteins named here, by UniProt entry; tags and fusion partners are left off. A change or cut given only in a name is not applied to a line headed by its entry.
# UniProt P18054: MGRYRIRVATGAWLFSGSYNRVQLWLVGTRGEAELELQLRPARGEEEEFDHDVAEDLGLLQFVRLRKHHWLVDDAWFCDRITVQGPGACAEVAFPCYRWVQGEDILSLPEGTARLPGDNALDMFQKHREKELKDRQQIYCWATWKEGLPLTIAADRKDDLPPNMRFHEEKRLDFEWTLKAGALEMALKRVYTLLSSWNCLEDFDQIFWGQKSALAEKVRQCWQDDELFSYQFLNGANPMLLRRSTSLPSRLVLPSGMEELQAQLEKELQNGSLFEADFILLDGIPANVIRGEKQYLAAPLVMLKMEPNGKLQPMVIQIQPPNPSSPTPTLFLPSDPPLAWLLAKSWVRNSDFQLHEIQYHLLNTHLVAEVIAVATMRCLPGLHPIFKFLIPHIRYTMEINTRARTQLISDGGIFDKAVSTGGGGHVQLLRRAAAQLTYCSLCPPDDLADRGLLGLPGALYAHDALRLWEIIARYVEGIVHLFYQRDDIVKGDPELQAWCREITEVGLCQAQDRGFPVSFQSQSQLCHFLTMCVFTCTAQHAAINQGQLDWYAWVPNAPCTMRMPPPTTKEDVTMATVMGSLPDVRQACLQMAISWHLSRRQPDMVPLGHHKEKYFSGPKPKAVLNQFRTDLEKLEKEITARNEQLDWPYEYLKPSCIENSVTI
# Target: Polyunsaturated fatty acid lipoxygenase ALOX12 (Homo sapiens) (UniProt P18054)
# Assay: Primary qHTS assay for inhibitors of human arachidonate 12S-lipoxygenase (ALOX12): Round 2
# Details: purified 12hLO, xylenol orange hydroperoxide absorbance; series mostly up to 108 µM
# Method in brief: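 Purified human 12hLO at 150 nM in 25 mM Hepes, 0.01% Triton X-100, pH 7.0, preincubated 15 min at room temperature with compound. Reaction started with 40 uM arachidonic acid, 30 min at room temperature. Hydroperoxide measured by Fe-xylenol orange, 573/405 nm absorbance ratio.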
# Potency is the fitted concentration of half-maximal effect.
row,Structure (SMILES),Potency
1,COc1cccc(-c2nn(-c3ccc(C)cc3)cc2C(=O)N2CCc3cc(OC)c(OC)cc3C2)c1,"inconclusive: 79.4 µM [inhibitor, partial curve, poor fit]"
2,COC(=O)C(c1ccccc1)(c1cn(C)c2cc(Br)ccc12)C(Nc1ccccc1)c1ccccc1 (configuration not stated),"inconclusive: 79.4 µM [inhibitor, partial curve, poor fit]"
3,CC(=O)c1ccc(-c2cc(F)cc3c2OC(CNC(=O)C(C)N2CCOCC2)C3)s1 (configuration not stated),"inconclusive: 89.1 µM [inhibitor, single point]"
4,COc1cc(C(=O)NC(=S)Nc2ccc(Cl)cn2)cc(OC)c1OC,inactive
5,Cc1ccc(NC(=O)C(NC2CCCc3ccccc32)c2ccccc2)cc1Cl (configuration not stated),"inconclusive: 1.58 µM [inhibitor, full curve]"
6,CCN(Cc1ccc(OC)c(COC)c1)CC1CCCN(CCc2cccc(F)c2)C1 (configuration not stated),inactive
7,CCCc1sc(N)nc1-c1ccc(Cl)cc1,"inconclusive: 126 µM [inhibitor, partial curve, poor fit]"
8,COc1ccc(OC(=O)COc2ccccc2C)cc1,"inconclusive: 35.5 µM [inhibitor, single point]"
9,CCOC(=O)C1=CN2CCC[C@H]2CC1=O,"inconclusive: 100 µM [inhibitor, single point]"
10,N#CCSc1ccc(S(=O)(=O)N2CCOCC2)cn1,"inconclusive: 7.08 µM [inhibitor, full curve, poor fit]"
11,CCOc1ccc2[nH]c(=O)c(CN(Cc3nnnn3CCc3ccccc3)CC3CCCO3)cc2c1 (configuration not stated),"inconclusive: 50.1 µM [inhibitor, partial curve, poor fit]"
12,Cc1nc(-c2nc(-c3c(C(=O)NNC(=O)Nc4ccccc4)noc3C)cs2)cs1,inactive
13,Cc1ccc(S(=O)(=O)NN=C2C3CC4CC(C3)CC2C4)cc1[N+](=O)[O-],"inconclusive: 50.1 µM [inhibitor, partial curve, poor fit]"
14,Nc1ccc(C(=O)N/N=C/c2ccc([N+](=O)[O-])cc2)cc1,"inconclusive: 112 µM [inhibitor, partial curve, poor fit]"
15,Cc1cc(C)c(NC(=O)CN2CCN(c3ccccn3)CC2)c(C)c1,"inconclusive: 0.158 µM [inhibitor, full curve, poor fit]"
16,O=C1N=C(N2CCOCC2)S/C1=C\c1ccccc1OS(=O)(=O)c1ccccc1,"inconclusive: 0.794 µM [inhibitor, full curve, poor fit]"
17,CCN1C(=O)C2(C(=C(O)c3ccc4c(c3)OCCO4)C(=O)C(=O)N2CCOC)c2ccccc21 (configuration not stated),"inconclusive: 7.94 µM [inhibitor, full curve, poor fit]"

# From entry 11 to 12, copied from above:
row,Structure (SMILES),Potency
11,CCOc1ccc2[nH]c(=O)c(CN(Cc3nnnn3CCc3ccccc3)CC3CCCO3)cc2c1 (configuration not stated),"inconclusive: 50.1 µM [inhibitor, partial curve, poor fit]"
12,Cc1nc(-c2nc(-c3c(C(=O)NNC(=O)Nc4ccccc4)noc3C)cs2)cs1,inactive

# Source: PubChem BioAssay AID1671190 (National Center for Advancing Translational Sciences (NCATS), 2021)
